Assay results as given in patent US20070259435A1, “Intravenous Drug Administration and Blood Sampling Model in the Awake Rat” (priority 2004, published 2007).
Structures can show the parent of a compound that is named as a salt. Where two headings read alike, the source gives them in different places. The name of at least one read-out is uncertain.

Key:
[1] = format: in vivo, Sprague-Dawley rat; conditions: single oral 5 mg/kg, Mean
Source text: (§1) Male SPF Sprague-Dawley rats (200-300 g, Charles River, Germany) were used throughout the study. Animals were allowed to acclimatize for one week prior to each part of the study. Tap water and food were available ad libitum.
(§2) The plasma concentration profile and major PK parameters of different chemical structures were investigated following oral administration. Blood samples were taken from the tail vein with either the multiple or single sampling method.
For both methods, the same formulation per compound was used to ensure any differences in results were not due to formulation effects. […] All formulations were stored at room temperature, protected from light and analysed quantitatively. […]
After dosing the compound, blood samples were taken at the desired time points. […] Plasma samples were analysed for the appropriate compound using individual qualified research LC-MS/MS methods as described in section 2.4.
(§3) For all compounds, individual calibration curves were constructed in blank EDTA rat plasma (covering the expected concentration range). […] After sample preparation, the (reconstituted) residues were pipetted in polypropylene auto sampler vials and analysed using individual qualified research methods.
Aliquots of the residues were analysed using multiple reaction monitoring (MRM) liquid chromatography coupled to tandem mass spectrometry (LC-MS/MS) (API-3000 or 4000, Applied Biosystems, Canada). […]

[2] = format: in vivo, Sprague-Dawley rat; conditions: single oral 5 mg/kg, multiple sampling
Source text: as §1
For multiple blood sampling via the tail vein the animals were placed in a rodent cylindrical restrainer developed by the Scientific Instrument Division (Johnson & Johnson, Pharmaceutical Research and Development, division of Janssen Pharmaceutica). The rat's tail was warmed using an infra red lamp to facilitate the sampling. Venous blood was collected by a 27 G needle into Multivette 600KE tubes containing EDTA (Sarstedt, Germany).
as §2
For both methods, the same formulation per compound was used to ensure any differences in results were not due to formulation effects. Test compounds JNJ1 (a farnesyl transferase compound), JNJ2 (galantamine hydrobromide) and JNJ3 (a CRF antagonist) were formulated in demineralized water or a 10% hydroxypropyl- -β cyclodextrin (HP- - ? CD) solution at final concentrations of between 0.25 and 1 mg/ml. All formulations were stored at room temperature, protected from light and analysed quantitatively. Animals were orally dosed by gastric intubation using a volume of 10 ml/kg.
After dosing the compound, blood samples were taken at the desired time points. For the single sampling method, three animals per time point were sacrificed by decapitation and blood was collected by exsanguination into 10 ml B-D Sterile EDTA K3 Vacutainer tubes. For the multiple sampling technique 0.3 ml venous blood was repeatedly collected from the tail vein as described above. […] Plasma samples were analysed for the appropriate compound using individual qualified research LC-MS/MS methods as described in section 2.4.
as §3
Aliquots of the residues were analysed using multiple reaction monitoring (MRM) liquid chromatography coupled to tandem mass spectrometry (LC-MS/MS) (API-3000 or 4000, Applied Biosystems, Canada). Chromatographic separation was obtained on commercial base deactivated C-18 columns of different brands, depending on the chromatographic behaviour of the compounds to be analysed. […] Final concentrations were calculated by interpolation from the calibration curves response, using a linear regression model. […]

Measured: Tmax (time to reach Cmax)

COc1ccc2c3c1O[C@H]1C[C@@H](O)C=C[C@@]31CCN(C)C2 [JNJ2, galantamine hydrobromide]
3 h: [1] | [2]; Mean | [2]; Rat 1 | [2]; Rat 2 | [2]; Rat 3
